Source: paper PMC12672999
No constants are given. Whether binding was seen depends on the method and setting. In cells and extracts the contact can be indirect. Some entries that bind do so weakly or less than the wild type.

Chains of the proteins cited; added tags and fusions are not shown. Residues count along the entry.
UniProt Q3UMR5, residues 50-350: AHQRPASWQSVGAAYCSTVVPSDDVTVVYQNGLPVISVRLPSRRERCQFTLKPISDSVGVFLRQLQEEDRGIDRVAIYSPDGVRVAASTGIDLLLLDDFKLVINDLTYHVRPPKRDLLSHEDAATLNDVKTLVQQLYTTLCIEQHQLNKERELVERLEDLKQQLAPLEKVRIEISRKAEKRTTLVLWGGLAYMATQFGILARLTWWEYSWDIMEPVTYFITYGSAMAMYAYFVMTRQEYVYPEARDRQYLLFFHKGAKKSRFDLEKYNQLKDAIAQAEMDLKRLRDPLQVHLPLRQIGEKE

T1: medium-chain acyl-CoA dehydrogenase (ACADM) (not stated (endogenous in VSMCs; mouse VSMCs and rat VSMCs were cultured)) (UniProt P45952)
T1 sequence: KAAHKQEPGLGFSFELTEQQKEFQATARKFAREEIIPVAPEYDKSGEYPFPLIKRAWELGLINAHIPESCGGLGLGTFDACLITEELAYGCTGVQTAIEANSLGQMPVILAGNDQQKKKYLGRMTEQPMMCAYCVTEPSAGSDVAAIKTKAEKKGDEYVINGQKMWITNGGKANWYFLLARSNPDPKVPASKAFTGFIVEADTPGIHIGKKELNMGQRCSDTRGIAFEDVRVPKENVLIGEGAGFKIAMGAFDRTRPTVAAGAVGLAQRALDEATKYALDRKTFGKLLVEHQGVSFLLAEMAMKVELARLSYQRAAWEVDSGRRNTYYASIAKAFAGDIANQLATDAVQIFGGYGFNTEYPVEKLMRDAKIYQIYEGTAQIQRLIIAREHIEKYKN


Experiments:
[1] = target: T1, medium-chain acyl-CoA dehydrogenase (ACADM) (not stated (endogenous in VSMCs; mouse VSMCs and rat VSMCs were cultured)); assay: co-IP; endogenous proteins from VSMCs lysed in RIPA buffer with 1 mM PMSF; antibodies on A/G magnetic beads; IP: ACADM, IB: MCU and IP: MCU, IB: ACADM; cells treated with cholesterol, with or without MCU inhibitors (Ru360, mitoxantrone)
[2] = target: mitochondrial calcium uniporter (MCU) (not stated (endogenous in VSMCs; mouse VSMCs and rat VSMCs were cultured)) (UniProt Q3UMR5); assay: proximity ligation; Duolink In Situ Red Starter Kit Mouse/Rabbit on fixed, permeabilised VSMCs; antibody ACADM (mouse), antibody MCU (rabbit); cells with or without cholesterol; confocal microscopy, Image J
[3] = target: mitochondrial calcium uniporter (MCU) (not stated (endogenous in VSMCs; mouse VSMCs and rat VSMCs were cultured)) (UniProt Q3UMR5); assay: co-IP; endogenous proteins from VSMCs lysed in RIPA buffer with 1 mM PMSF; antibodies on A/G magnetic beads; IP: ACADM, IB: MCU and IP: MCU, IB: ACADM; cells treated with cholesterol, with or without MCU inhibitors (Ru360, mitoxantrone)

Molecule	binding [1]	binding [2]	binding [3]
mitochondrial calcium uniporter (MCU) (from UniProt Q3UMR5 50-350)	binds	–	–
medium-chain acyl-CoA dehydrogenase (ACADM) (protein, UniProt P45952 26-421) KAAHKQEPGLGFSFELTEQQKEFQATARKFAREEIIPVAPEYDKSGEYPFPLIKRAWELGLINAHIPESCGGLGLGTFDACLITEELAYGCTGVQTAIEANSLGQMPVILAGNDQQKKKYLGRMTEQPMMCAYCVTEPSAGSDVAAIKTKAEKKGDEYVINGQKMWITNGGKANWYFLLARSNPDPKVPASKAFTGFIVEADTPGIHIGKKELNMGQRCSDTRGIAFEDVRVPKENVLIGEGAGFKIAMGAFDRTRPTVAAGAVGLAQRALDEATKYALDRKTFGKLLVEHQGVSFLLAEMAMKVELARLSYQRAAWEVDSGRRNTYYASIAKAFAGDIANQLATDAVQIFGGYGFNTEYPVEKLMRDAKIYQIYEGTAQIQRLIIAREHIEKYKN	–	binds	binds
